Assay results taken from patent US7074785B2, “Δ1-pyrrolines used as pesticides” (Bayer Cropscience AG, priority 2001, dated 2006).
The name of at least one read-out is uncertain.

Columns and labels:
[1] = system: army worm (Spodoptera frugiperda) caterpillars; test: Spodoptera frugiperda test; assay type: in vivo; settings: 100 ppm, cabbage leaves dipped
[2] = system: greenhouse red spider mite (Tetranychus urticae); test: Tetranychus test (OP resistant/dip treatment); assay type: in vivo; settings: 100 ppm, bean plants dipped, Tetranychus urticae OP-resistant
Method: Tetranychus Test (OP Resistant/Dip Treatment)
Solvent: 7 parts by weight of dimethylformamide
After the desired period of time, the effect in % is determined.

| SMILES | Kill rate in % after 7 d [1] [%] | Kill rate in % after 7 d [2] [%] |
| --- | --- | --- |
| O=C1OCCN1c1ccc(-c2ccc(C3CCC(c4c(F)cccc4F)=N3)cc2)cc1 (stereo not shown) [Compound 4, 3-{4′-[5-(2,6-difluorophenyl)-3,4-dihydro-2H -pyrrol-2-yl]-1,1′-biphenyl-4-yl}-1,3-oxazolidin-2-one] | 100 | – |
| O=C(Nc1ccc(-c2ccc(C3CCC(c4c(F)cccc4F)=N3)cc2)cc1)N1CCOCC1 (stereo not shown) [Compound 5, N-{4′-[5-(2,6-difluorophenyl)-3,4-dihydro-2H-pyrrol-2-yl]-1,1 ′-biphenyl-4-yl}-4-morpholinecarboxamide] | 100 | – |
| O=C(Nc1ccccc1)Nc1ccc(-c2ccc(C3CCC(c4c(F)cccc4F)=N3)cc2)cn1 (stereo not shown) [Compound 22] | 100 | 90 |
